# Source: PubChem BioAssay AID1345085 (National Center for Advancing Translational Sciences (NCATS), 2018)
# This list was built around the results that the source calls inconclusive (neither active nor inactive); the mix of calls is not that of the screen. Potencies beside an inconclusive call are fits to weak or partial responses and may not hold up. Active and inactive are the calls of the source. The call rests on the fitted dose curve; in most records, active means well fitted cell-killing curve with a large enough effect; inconclusive means small, poorly fitted or top-dose-only effect, or effect the other way; inactive means no such curve, though single readings can be large or run the other way.
# System: Tov-21-G
# Assay: Confirmatory qHTS for gynecologic anti-cancer compounds from libraries of approved drugs and bioactive compounds; further: nearly all actives have a fitted effect of over 55% in size
# Conditions: gynecologic cancer cell panel viability, ATPlite luminescence, 48 h; series mostly up to 57.7 µM; activity change, negative = viability loss: at the top concentration
# Summary of the method: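 Seeding 1,000 cells per well preceded overnight (16 h) attachment, after which 48 h drug treatment across 57.5 uM–0.977 nM (11 points) was applied. Remaining cellular ATP, detected by ATPlite luminescence, defined IC50.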
# On the % scale 0 is the no-effect control and ±100 the full control effect; potency means the concentration at half of the fitted maximal effect.
Compound,"activity change, negative = viability loss",Potency
CC(=O)O[C@H]1C(=O)[C@@]2(C)[C@H]([C@H](OC(=O)c3ccccc3)[C@]3(O)C[C@H](OC(=O)[C@H](O)[C@@H](NC(=O)c4ccccc4)c4ccccc4)C(C)=C1C3(C)C)[C@]1(OC(C)=O)CO[C@@H]1C[C@@H]2O,inactive: 0.907% [at 11 µM],
CCCc1nn(C)c2c(=O)[nH]c(-c3cc(S(=O)(=O)N4CCN(C)CC4)ccc3OCC)nc12,,"inconclusive: 43200 nM [cytotoxic, single point]"
CS(=O)(=O)c1ccc(C(=O)Nc2ccc(Cl)c(-c3ccccn3)c2)c(Cl)c1,,"inconclusive: 1.9 nM [rising, full curve]"
OCCNC1CCCc2c1[nH]c1ccc(-c3ccccc3)cc21 (stereo not given),,active: 27300 nM
O=C(NOCC1CC1)c1ccc(F)c(F)c1Nc1ccc(I)cc1Cl,,"inconclusive: 21700 nM [cytotoxic, partial curve]"
CC(C)C[C@H](NC(=O)[C@@H](NC(=O)c1cccc(-c2ccccc2)n1)[C@@H](C)O)B(O)O,,active: 1720 nM
COc1cc2nccc(Oc3ccc(NC(=O)C4(C(=O)Nc5ccc(F)cc5)CC4)cc3)c2cc1OC,,"inconclusive: 1930 nM [cytotoxic, full curve, poor fit]"
CC(C)(C)C(=O)OCOP(=O)(COCCn1cnc2c(N)ncnc21)OCOC(=O)C(C)(C)C,,"inconclusive: 24300 nM [cytotoxic, partial curve, poor fit]"
Cc1ccn(-c2ccc(-c3ncco3)cc2)c(=O)c1-c1ccc2nc(N)ncc2c1,,active: 6110 nM
O=C(CCCCCCNC(=O)c1cnc(N(c2ccccc2)c2ccccc2)nc1)NO,,active: 21700 nM
OC[C@H]1O[C@@H](n2cnc3c(=S)nc[nH]c32)[C@H](O)[C@@H]1O,inactive: -22.2%,
Nc1nc(Cl)nc2c1ncn2C1OC(CO)C(O)C1F (stereo not given),,active: 3430 nM
CCc1c2c(nc3ccc(OC(=O)N4CCC(N5CCCCC5)CC4)cc13)-c1cc3c(c(=O)n1C2)COC(=O)[C@]3(O)CC,,active: 21700 nM
Cc1nc(N)nc(N)c1-c1ccc(Cl)c(Cl)c1,,"inconclusive: 172 nM [rising, partial curve, poor fit]"
C#C[C@]1(O)CC[C@H]2[C@@H]3CCC4=CC(=O)CC[C@@H]4[C@H]3CC[C@@]21CC,inactive: 12.4%,
CCN1C[C@H](C)n2c(c(O)c3c(=O)n(Cc4ccc(F)c(Cl)c4)nc(C(=O)NC)c32)C1=O,,"inconclusive: 9.7 nM [rising, full curve, poor fit]"
Cc1nc2ccc(CN(C)c3ccc(C(=O)NC(CCC(=O)O)C(=O)O)s3)cc2c(=O)[nH]1 (stereo not given),,"inconclusive: 19300 nM [cytotoxic, partial curve, poor fit]"
COc1cc2c(c(OC)c1OC)-c1ccc(OC)c(=O)cc1[C@@H](NC(C)=O)CC2,,"inconclusive: 1260 nM [cytotoxic, full curve]"

# Six of the compounds above, bar-delimited:
Compound | activity change, negative = viability loss | Potency
COc1cc2nccc(Oc3ccc(NC(=O)C4(C(=O)Nc5ccc(F)cc5)CC4)cc3)c2cc1OC |  | inconclusive: 1930 nM [cytotoxic, full curve, poor fit]
OC[C@H]1O[C@@H](n2cnc3c(=S)nc[nH]c32)[C@H](O)[C@@H]1O | inactive: -22.2% | 
Nc1nc(Cl)nc2c1ncn2C1OC(CO)C(O)C1F (stereo not given) |  | active: 3430 nM
CCc1c2c(nc3ccc(OC(=O)N4CCC(N5CCCCC5)CC4)cc13)-c1cc3c(c(=O)n1C2)COC(=O)[C@]3(O)CC |  | active: 21700 nM
Cc1nc(N)nc(N)c1-c1ccc(Cl)c(Cl)c1 |  | inconclusive: 172 nM [rising, partial curve, poor fit]
C#C[C@]1(O)CC[C@H]2[C@@H]3CCC4=CC(=O)CC[C@@H]4[C@H]3CC[C@@]21CC | inactive: 12.4% | 

# More records.

Compound,"activity change, negative = viability loss",Potency
CN1CCN(Cc2ccc(NC(=O)Nc3ccc(Oc4cc(NC(=O)C5CC5)ncn4)cc3)cc2C(F)(F)F)CC1,,active: 432 nM
O=C1N(c2ccccc2)c2ccccc2C1(Cc1ccncc1)Cc1ccncc1,inactive: 18.7%,
Cc1cc(SCc2sc(-c3ccc(C(F)(F)F)cc3)nc2C)ccc1OCC(=O)O,inactive: 1.34%,
Cc1cnc(Nc2ccc(OCCN3CCCC3)cc2)nc1Nc1cccc(S(=O)(=O)NC(C)(C)C)c1,,active: 1720 nM
COC(C(=O)N1Cc2[nH]nc(NC(=O)c3ccc(N4CCN(C)CC4)cc3)c2C1)c1ccccc1 (stereo not given),,active: 1370 nM
CC[C@]1(O)C[C@H]2CN(CCc3c([nH]c4ccccc34)[C@@](C(=O)OC)(c3cc4c(cc3OC)N(C=O)[C@H]3[C@@](O)(C(=O)OC)[C@H](OC(C)=O)[C@]5(CC)C=CCN6CC[C@]43[C@@H]65)C2)C1,,active: 611 nM
C[C@@H](Oc1cc(-c2cnn(C3CCNCC3)c2)cnc1N)c1c(Cl)ccc(F)c1Cl,,"inconclusive: 21700 nM [cytotoxic, partial curve, poor fit]"
COc1cc(F)c(F)c(Nc2ccc(I)cc2F)c1NS(=O)(=O)C1(CC(O)CO)CC1 (stereo not given),,active: 13700 nM
O=C1Cc2cc(CCN3CCN(c4nsc5ccccc45)CC3)c(Cl)cc2N1,,"inconclusive: 432 nM [rising, full curve, poor fit]"
COc1cc(N2CCC(N)CC2)ccc1Nc1ncc(Cl)c(-c2c[nH]c3ccccc23)n1,,"inconclusive: 15300 nM [cytotoxic, partial curve, poor fit]"
Cn1cc(-c2ccc3ncc(Cc4ccc5ncccc5c4)n3n2)cn1,,"inconclusive: 1530 nM [cytotoxic, single point]"
OCc1ccc(-c2ccc(-c3ccc(CO)s3)o2)s1,,"inconclusive: 7490 nM [cytotoxic, partial curve, poor fit]"
COc1c(C)c2c(c(O)c1C/C=C(\C)CCC(=O)OCCN1CCOCC1)C(=O)OC2,,"inconclusive: 13.7 nM [rising, full curve, poor fit]"
Cc1nc(NC(=O)N2CCCC2C(N)=O)sc1-c1csc(C(C)(C)C)n1 (stereo not given),,"inconclusive: 968 nM [cytotoxic, full curve, poor fit]"
CNc1nccc(-c2cccnc2Oc2cc(C(=O)Nc3cccc(C(F)(F)F)c3)ccc2C)n1,,"inconclusive: 6110 nM [cytotoxic, full curve, poor fit]"
CNc1nc(Nc2ccc(C(=O)N3CCOCC3)cc2OC)ncc1Cl,inactive: -9.86%,
COc1ccc2cc3[n+](cc2c1OC)CCc1cc2c(cc1-3)OCO2,,"inconclusive: 243 nM [rising, full curve, poor fit]"
